Data as given in PubChem BioAssay AID1259308 (NCATS, 2017).

- Purpose: 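Candidate targets for better recombinant protein yield in mammalian cells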 (primary screen)
- System: human HEK293 embryonic kidney cells stably expressing firefly luciferase (HEK-CMV-Luc2-Hygro)
- Knock-down reagent: single siRNA against human genes, 0.8 pmol siRNA per well
- Duration: 72 h
- Measured: 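Luciferase light (ONE-Glo) measured on one replicate plate set and viability (CellTiter-Glo) on the other, scaled to a negative control siRNA, with robust z-scores and luciferase per cell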
- Scale: total luciferase, z-score: higher = more reporter protein produced
- Rule for the call: 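An siRNA counts as active if its total luciferase robust z-score exceeds 3; genes with two or more such siRNAs out of three were retested with fresh siRNAs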
- Meaning of the calls: active = raised luciferase; inactive = no rise
Shown is a random part of about 59,000 reagents tested. About 1,510 of all reagents (2.6%) count as active. 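Calls use total luciferase alone and ignore viability, so some active siRNAs may act by altering cell number.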 Unmarked entries are inactive. Reagents against one gene are numbered here. Further read-outs or replicates are left out here.

Silencing of ENO4 (enolase 4) #1 resulted in: total luciferase, z-score 2.18.
With knock-down of ENO4 (enolase 4) #2 the results were total luciferase, z-score 1.27.
For ENO4 (enolase 4) #3, the entry reads total luciferase, z-score 3.84 (active).
Against AMPD2 (adenosine monophosphate deaminase 2) #1, the values are total luciferase, z-score 0.806.
Depletion of AMPD2 (adenosine monophosphate deaminase 2) #2 came out at: total luciferase, z-score 0.976.
Silencing of AMPD2 (adenosine monophosphate deaminase 2) #3 gave: total luciferase, z-score -1.18.
For PRKAB1 (protein kinase AMP-activated non-catalytic subunit beta 1) #1, the entry reads total luciferase, z-score 0.253.
Knock-down of PRKAB1 (protein kinase AMP-activated non-catalytic subunit beta 1) #2 came out at: total luciferase, z-score 0.784.
For PRKAB1 (protein kinase AMP-activated non-catalytic subunit beta 1) #3, the entry reads total luciferase, z-score -0.458.
Silencing of OGFRL1 (opioid growth factor receptor like 1) #1 came out at: total luciferase, z-score -0.61.
Knock-down of OGFRL1 (opioid growth factor receptor like 1) #2 gave: total luciferase, z-score -0.597.
OGFRL1 (opioid growth factor receptor like 1) #3 scored total luciferase, z-score -0.0179.
Depletion of CPZ (carboxypeptidase Z) #1 resulted in: total luciferase, z-score 0.467.
For CPZ (carboxypeptidase Z) #2 the deposit lists total luciferase, z-score 1.43.
Against CPZ (carboxypeptidase Z) #3, the values are total luciferase, z-score 1.06.
With knock-down of CMAS (cytidine monophosphate N-acetylneuraminic acid synthetase) #1 the results were total luciferase, z-score -1.75.
After knock-down of CMAS (cytidine monophosphate N-acetylneuraminic acid synthetase) #2 the results were total luciferase, z-score -1.03.
Silencing of CMAS (cytidine monophosphate N-acetylneuraminic acid synthetase) #3 came out at: total luciferase, z-score 0.455.
Against MYT1L (myelin transcription factor 1 like) #1, the entry reads total luciferase, z-score 2.05.
Against MYT1L (myelin transcription factor 1 like) #2, the values are total luciferase, z-score 0.184.
Against MYT1L (myelin transcription factor 1 like) #3 the deposit lists total luciferase, z-score 1.16.
Against TBC1D17 (TBC1 domain family member 17) #1, the values are total luciferase, z-score -0.138.
TBC1D17 (TBC1 domain family member 17) #2 showed total luciferase, z-score -0.536.
TBC1D17 (TBC1 domain family member 17) #3 showed total luciferase, z-score 0.989.
EGR3 (early growth response 3) #1 scored total luciferase, z-score 0.723.
With knock-down of EGR3 (early growth response 3) #2 the results were total luciferase, z-score -1.55.
With knock-down of EGR3 (early growth response 3) #3 the results were total luciferase, z-score 0.449.
For LAMTOR1 (late endosomal/lysosomal adaptor, MAPK and MTOR activator 1) #1 the deposit lists total luciferase, z-score -0.575.
LAMTOR1 (late endosomal/lysosomal adaptor, MAPK and MTOR activator 1) #2 showed total luciferase, z-score 1.97.
LAMTOR1 (late endosomal/lysosomal adaptor, MAPK and MTOR activator 1) #3 scored total luciferase, z-score 0.149.
With knock-down of CATSPER1 (cation channel sperm associated 1) #1, the record shows total luciferase, z-score -0.209.
For CATSPER1 (cation channel sperm associated 1) #2, the values are total luciferase, z-score 1.7.
Silencing of CATSPER1 (cation channel sperm associated 1) #3 gave: total luciferase, z-score 0.16.

4 entries from above, set out differently:
{"target":"OGFRL1 (opioid growth factor receptor like 1)","reagent no.":1,"total luciferase, z-score":-0.61}
{"target":"OGFRL1 (opioid growth factor receptor like 1)","reagent no.":2,"total luciferase, z-score":-0.597}
{"target":"OGFRL1 (opioid growth factor receptor like 1)","reagent no.":3,"total luciferase, z-score":-0.0179}
{"target":"CPZ (carboxypeptidase Z)","reagent no.":1,"total luciferase, z-score":0.467}
